{"source": "PubChem BioAssay AID743478", "about": "(Broad Institute, 2014)", "note": "This list was built around the results that the source calls inconclusive (neither active nor inactive); the mix of calls is not that of the screen. Active and inactive are the calls of the source.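 How the source made its calls: active means fitted curve falls past -35% activity change at a dose below twice the highest valid tested dose; inconclusive means no clear call, values can overlap the other calls; inactive means the rest, including activity opposite to the expected decrease.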"}
{"experiment": "killing of EWS/Fli1-dependent A673 cells, confirmation, cell-based, luminescence, retest at dose, dry powder (AID 743478)", "conditions": "A673 viability, CellTiter-Glo ATP luminescence, 72 h; at 26 µM (top of the series)"}
{"compound": "C[C@]1(c2nc3c(C(N)=O)cccc3[nH]2)CCCN1", "activity change, negative = cytotoxicity": "inactive: -26%"}
{"compound": "COc1cc(Nc2ncc3c(n2)-c2ccc(Cl)cc2C(c2c(F)cccc2OC)=NC3)ccc1C(=O)O", "activity change, negative = cytotoxicity": "inconclusive: -46%"}
{"compound": "COC(=O)c1ccc(C2C(C#N)=C(N)Oc3cc(N)ccc32)cc1", "note": "(stereo not drawn)", "activity change, negative = cytotoxicity": "inconclusive: -23%"}
